Library screening results

Sequences of proteins named here, by UniProt entry; tags and fusion partners are left off.
UniProt E9BF75, entry or part of it: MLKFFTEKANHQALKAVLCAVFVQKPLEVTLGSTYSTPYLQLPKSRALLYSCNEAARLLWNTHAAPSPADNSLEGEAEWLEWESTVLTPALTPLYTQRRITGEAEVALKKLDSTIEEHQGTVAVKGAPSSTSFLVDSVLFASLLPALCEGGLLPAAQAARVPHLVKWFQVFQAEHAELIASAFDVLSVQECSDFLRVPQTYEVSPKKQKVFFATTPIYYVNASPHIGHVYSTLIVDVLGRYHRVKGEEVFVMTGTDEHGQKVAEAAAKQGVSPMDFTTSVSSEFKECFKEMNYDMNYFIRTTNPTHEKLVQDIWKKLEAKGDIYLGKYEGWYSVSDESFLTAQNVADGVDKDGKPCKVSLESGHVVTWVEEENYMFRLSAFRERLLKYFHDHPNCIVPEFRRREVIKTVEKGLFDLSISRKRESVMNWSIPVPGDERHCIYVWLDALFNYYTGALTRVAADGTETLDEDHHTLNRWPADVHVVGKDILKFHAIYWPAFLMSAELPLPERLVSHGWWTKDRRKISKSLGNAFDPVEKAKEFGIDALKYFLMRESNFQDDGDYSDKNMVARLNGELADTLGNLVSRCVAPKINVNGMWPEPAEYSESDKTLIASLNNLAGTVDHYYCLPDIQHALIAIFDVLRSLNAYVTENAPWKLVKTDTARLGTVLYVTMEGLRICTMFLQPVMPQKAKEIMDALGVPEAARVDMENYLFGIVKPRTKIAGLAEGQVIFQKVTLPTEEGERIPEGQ

All values are in %.
The controls that fix the scale are not given in the record; negative values are as filed.
Compounds were drawn at random from those tested, without regard to their results.
A dash means the value is not listed here; it may have been measured.

Mtb heat-shock: 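Assay on Mycobacterium tuberculosis, filed only as a heat shock assay from Cornell; the read-out is not stated. The concentration is filed as 10 mM, unlikely as a test dose, so the dose is not known. The record gives no direction; compounds that gave an IC50 in retests scored well above the rest, so higher reads as stronger inhibition. Size under these conditions: about 69,000 compounds, about 930 of them at 50% or above in at least one test.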
Mtb growth Cornell: 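Whole-cell assay for inhibitors of Mycobacterium tuberculosis growth, labelled Cornell in the record; the read-out is not stated. The concentration is filed as 10 mM, unlikely as a test dose, so the dose is not known. The record gives no direction; compounds strong in two other growth screens of this library score well above the rest, so higher reads as stronger inhibition. Size under these conditions: about 53,000 compounds, about 900 of them at 50% or above in at least one test.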
LdMetRS: 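Primary screen of methionyl-tRNA synthetase; the read-out is not stated. Target: Methionyl-tRNA synthetase (putative), Leishmania donovani (UniProt E9BF75). The test concentration is not given. The values are filed as inhibition. Of about 68,000 compounds tested this way, about 24 (0.035%) reached 50% or more in at least one test.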

| Compound | Mtb heat-shock | Mtb growth Cornell | LdMetRS |
|---|---|---|---|
| `c1ccc(N2CCC(OCC3CCCCO3)CC2)nc1` (stereo not given) | 11.54 | - | 10.36 |
| `O=C(NCc1cccnc1)N1CCC2(CC(=O)N(c3ccsc3)C2)C1` (stereo not given) | - | - | 7.372 |
| `CNC(=O)CCNC(=O)c1cc(C)n(-c2cccc(OC)c2)c1C` | -8.573 | - | 22.82 |
| `CC[C@@H](NC(C)=O)C(=O)NCc1cccnc1Oc1ccccc1OC` | -16.72 | -10.22 | 9.363 |
| `CC(NC(=O)c1cccs1)C(=O)NS(=O)(=O)Cc1ccc(C#N)cc1` (stereo not given) | 0.6139 | 26.76 | 13.75 |
| `CCOCC1CN(C(=O)N2CCCC2)Cc2cnn(C)c21` (stereo not given) | 8.121 | -3.842 | 4.658 |
| `COc1ccc(C(=O)N2CCO[C@H]3[C@@H](OCC4CC4)CC[C@@H]32)cc1F` | - | - | 11.96 |
| `Cc1cccc(C(=O)N2CCn3cc(CN4CCCCC4)nc3C2)n1` | 3.973 | -4.586 | 15.42 |
| `COc1cccc(C(=O)Nc2ccc(OC3CCN(C)CC3)cc2)c1` | 3.933 | 9.659 | 10.7 |
| `CCOc1cncc(N2CCN(c3ccccc3F)CC2)n1` | 7.677 | - | 2.957 |
| `Cc1ccc(CCNC(=O)CC2COCCN2S(=O)(=O)N(C)C)s1` (stereo not given) | -10.98 | 22.38 | 18.61 |
| `NC(=O)c1ccc(OCCCN2C[C@H](C3CC3)[C@@H](N)C2)cc1` | 15.16 | - | 12.27 |
| `COC(=O)N1CCC(Nc2ccc(C#N)c(Cl)c2)C1` (stereo not given) | -9.2 | 66.83 | 8.877 |
| `O=C(c1cccnc1)N1CCc2onc(CN3CCCC3)c2C1` | -1.32 | -28.4 | 13.59 |
| `Cc1ccc(-c2cc(-c3nc(CN4CCN(C)CC4)no3)[nH]n2)s1` | 6.11 | 20.89 | 10.65 |
| `N#CC(NC(=O)CC1CCSCC1)c1cnn(-c2ccccc2)c1` (stereo not given) | 3.282 | 23.82 | 3.472 |
| `COc1cccc(C(=O)N2CCN(C(=O)CCCn3ccnc3)CC2)c1` | -8.976 | -12.25 | -1.773 |
| `CN(CCc1ccncc1)Cc1c(C2CCCC2)[nH]c2ncccc12` | 3.036 | 49.05 | 13.37 |
| `COc1ccc(C)cc1NC(=O)C1CSc2ncc(C)c(=O)n2C1` (stereo not given) | 9.629 | 21.56 | 16.38 |
| `O=c1c2cnc(N3CCOCC3)nc2ccn1-c1ccccc1` | 16.68 | -23.41 | -7.013 |
| `COc1ccc(C(=O)N2CC(=O)N(CC3CC3)CC(O)C2)cc1` (stereo not given) | 40.66 | 0.7513 | 16.16 |
| `COc1cc(N2C[C@H](C(=O)N3CCCC3)[C@@H]3CCO[C@@H]3C2)ncn1` | - | - | 16.25 |
| `CCNC(=O)C1(Cc2cc(-c3ccccc3)no2)CCCN(C)C1` (stereo not given) | -8.011 | 18.19 | 18.1 |
| `COc1cc(CNC(C)c2ccc(F)c(F)c2)cc2c1OCCO2.O=C(O)C(=O)O` (stereo not given) | -10.93 | - | - |
| `COCc1nc(C(=O)N2CCCC(n3nc(C)cc3C)C2)cs1` (stereo not given) | -11.17 | -24.43 | 13.71 |
| `CCCS(=O)(=O)NC(C)C(=O)NCc1ccc(N2CCCC2)nc1` (stereo not given) | 0.7064 | -2.98 | 7.19 |
| `CC(NC(=O)NCCCc1n[nH]c(N)c1C#N)c1ccc(F)c(F)c1` (stereo not given) | -14.41 | - | 26.2 |
| `CN(Cc1ccc(F)cc1)CC1(O)CCN(C(=O)c2cccn2C)C1` (stereo not given) | 3.239 | - | 12.89 |
| `O=C(Nc1ccccc1)[C@H]1CN2CCC1C[C@@H]2Cn1cc(CO)nn1` (stereo not given in full) | -39.88 | - | 1.648 |
| `COCCOCC(=O)N1CCC2(CCCN(C3CCOCC3)C2=O)C1` (stereo not given) | -13.74 | -15.25 | -28.22 |
| `CCOCC1CN(C(=O)c2cccs2)Cc2cnn(CC3CC3)c21` (stereo not given) | 34.15 | -4.667 | 3.279 |
| `COCCN(CCOC)c1nc2c(s1)c(C)nn2C` | -24.19 | - | 11.85 |
| `N#CC(Sc1nnnn1C1CCOCC1)C1CCCCC1` (stereo not given) | 0.09698 | 21.84 | 15.61 |
| `CC(C)N1CCc2c(c(COc3cncnc3)nn2CC2CC2)C1` | - | - | 10.73 |
| `NCCCC(=O)N1CCC2(CC1)CN(C(=O)c1ccc(Cl)cc1)CCO2` | -16.82 | - | 12 |
| `O=C(CNC(=O)c1ccoc1)NCCOc1ccc2c(c1)CCC2` | 12.38 | 13.21 | -3.373 |
| `O=C(c1sccc1C1CC1)N1CCN(c2ncccn2)CC1` | -21.88 | - | 1.344 |
| `CCN1C[C@H]2[C@@H](C1)N(S(=O)(=O)c1ccccc1F)CC[C@H]2OC` | - | - | 18.41 |
| `COc1ccc2c(c1)CC(NCc1cccc(OCC(N)=O)c1)CC2` (stereo not given) | 19.6 | 14.7 | 11.17 |
| `Cc1ccc2c(c1)CN(C(=O)c1ccncc1)C(CN(C)C)CO2` (stereo not given) | - | - | 14.06 |
| `Oc1cc(C2CCCCN2CC2CC2)nc(-c2ccncc2)n1` (stereo not given) | 11.08 | 8.404 | 10.64 |
| `COc1ccccc1OCCC(=O)N1CCCC1Cn1cccn1` (stereo not given) | -9.224 | -2.88 | 13.13 |
| `CN(C)C(=O)c1ccc2c(c1)N(C)C(CC(=O)NCCC(C)(C)C)CO2` (stereo not given) | -2.897 | 7.016 | 15.04 |
| `COc1ccc(C2CCCCCN2CCCNS(C)(=O)=O)cc1` (stereo not given) | -12.2 | - | 25.63 |
| `O=C(c1csc(C2CC2)n1)N1CCCCC1Cn1cccn1` (stereo not given) | -32.75 | -10.11 | 4.19 |
| `Cn1cc2ncn([C@H]3CCN(Cc4ccccc4)C3)c(=O)c2n1` | -0.03823 | - | 10.66 |
| `O=C(c1cc[nH]n1)N1CCC(c2nccn2Cc2ccncc2)CC1` | 4.347 | 4.638 | 6.689 |
| `CC(=O)N1CCN(Cc2ccsc2)CC2(CC(=O)N(C)C2)C1.O=C(O)C(F)(F)F` (stereo not given) | -10.74 | 15.76 | - |
| `N#CC(NC(=O)CC(F)(F)F)c1ccsc1` (stereo not given) | -4.217 | 15.78 | 2.611 |
| `Cc1ccc(CNC(=O)c2c[nH]nc2NC(=O)C2COCCO2)cc1` (stereo not given) | 5.238 | 23.46 | 12.32 |
| `CO[C@@H]1CCN(S(=O)(=O)c2cn(C)cn2)[C@H]1Cc1cnn(C)c1` | - | - | 14.66 |
| `Cn1c(NCC(O)c2ccc(Cl)cc2)c(C#N)c(=O)n(C)c1=O` (stereo not given) | -8.2 | - | 25.07 |
| `CC(=O)N1CCN(C2CCc3ccccc32)CC1` (stereo not given) | 9.458 | -71.29 | 6.267 |
| `CCC(C(=O)NCc1ccncc1)N(c1ccc(F)cc1)S(C)(=O)=O` (stereo not given) | -35 | 14.1 | 14.53 |
| `O=C(c1ccsc1)N1CCC2(CC1)COCCN(Cc1ccncc1)C2` | - | - | 13.19 |

The last 6 entries again:

- Cc1ccc(CNC(=O)c2c[nH]nc2NC(=O)C2COCCO2)cc1 (stereo not given) : Mtb heat-shock: 5.238%; Mtb growth Cornell: 23.46%; LdMetRS: 12.32%
- CO[C@@H]1CCN(S(=O)(=O)c2cn(C)cn2)[C@H]1Cc1cnn(C)c1 : LdMetRS: 14.66%
- Cn1c(NCC(O)c2ccc(Cl)cc2)c(C#N)c(=O)n(C)c1=O (stereo not given) : Mtb heat-shock: -8.2%; LdMetRS: 25.07%
- CC(=O)N1CCN(C2CCc3ccccc32)CC1 (stereo not given) : Mtb heat-shock: 9.458%; Mtb growth Cornell: -71.29%; LdMetRS: 6.267%
- CCC(C(=O)NCc1ccncc1)N(c1ccc(F)cc1)S(C)(=O)=O (stereo not given) : Mtb heat-shock: -35%; Mtb growth Cornell: 14.1%; LdMetRS: 14.53%
- O=C(c1ccsc1)N1CCC2(CC1)COCCN(Cc1ccncc1)C2 : LdMetRS: 13.19%

Measurements from “University of Dundee, Small-Polar-MMV Screening Library” (2021), ChEMBL document CHEMBL3988442.